Binding data for two substances are collected here from PMC8719716.

By UniProt entry, the sequences of proteins in these tests, tags left out.
UniProt P70032: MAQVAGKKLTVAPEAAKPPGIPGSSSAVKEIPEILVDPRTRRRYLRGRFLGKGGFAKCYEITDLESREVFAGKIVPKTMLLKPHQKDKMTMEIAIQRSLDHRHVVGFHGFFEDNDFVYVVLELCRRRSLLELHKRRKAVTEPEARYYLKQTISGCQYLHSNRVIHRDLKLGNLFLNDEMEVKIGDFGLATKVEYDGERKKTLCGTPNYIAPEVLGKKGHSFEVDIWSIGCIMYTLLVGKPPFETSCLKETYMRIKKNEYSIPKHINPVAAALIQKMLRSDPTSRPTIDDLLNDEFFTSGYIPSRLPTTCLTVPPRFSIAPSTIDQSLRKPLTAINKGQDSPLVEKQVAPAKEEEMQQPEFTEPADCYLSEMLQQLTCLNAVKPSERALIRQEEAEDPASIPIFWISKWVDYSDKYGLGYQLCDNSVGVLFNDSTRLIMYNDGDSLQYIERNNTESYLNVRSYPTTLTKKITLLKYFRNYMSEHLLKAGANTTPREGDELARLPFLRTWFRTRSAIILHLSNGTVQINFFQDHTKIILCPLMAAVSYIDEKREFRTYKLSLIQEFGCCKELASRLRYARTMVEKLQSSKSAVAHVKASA

These are yes or no findings as the source states them, for the method shown. Binding seen in cells or lysates may run through a third protein. Here binding means that the protein was enriched with, or labelled near, the bait; the list need not be complete. Tags and fused reporters may be left off the sequences shown.

The experiment addresses T1, X. laevis CEP97 WT, exogenous, tag not named for the experiment (X. laevis) (UniProt Q6GPJ8).
T1 sequence: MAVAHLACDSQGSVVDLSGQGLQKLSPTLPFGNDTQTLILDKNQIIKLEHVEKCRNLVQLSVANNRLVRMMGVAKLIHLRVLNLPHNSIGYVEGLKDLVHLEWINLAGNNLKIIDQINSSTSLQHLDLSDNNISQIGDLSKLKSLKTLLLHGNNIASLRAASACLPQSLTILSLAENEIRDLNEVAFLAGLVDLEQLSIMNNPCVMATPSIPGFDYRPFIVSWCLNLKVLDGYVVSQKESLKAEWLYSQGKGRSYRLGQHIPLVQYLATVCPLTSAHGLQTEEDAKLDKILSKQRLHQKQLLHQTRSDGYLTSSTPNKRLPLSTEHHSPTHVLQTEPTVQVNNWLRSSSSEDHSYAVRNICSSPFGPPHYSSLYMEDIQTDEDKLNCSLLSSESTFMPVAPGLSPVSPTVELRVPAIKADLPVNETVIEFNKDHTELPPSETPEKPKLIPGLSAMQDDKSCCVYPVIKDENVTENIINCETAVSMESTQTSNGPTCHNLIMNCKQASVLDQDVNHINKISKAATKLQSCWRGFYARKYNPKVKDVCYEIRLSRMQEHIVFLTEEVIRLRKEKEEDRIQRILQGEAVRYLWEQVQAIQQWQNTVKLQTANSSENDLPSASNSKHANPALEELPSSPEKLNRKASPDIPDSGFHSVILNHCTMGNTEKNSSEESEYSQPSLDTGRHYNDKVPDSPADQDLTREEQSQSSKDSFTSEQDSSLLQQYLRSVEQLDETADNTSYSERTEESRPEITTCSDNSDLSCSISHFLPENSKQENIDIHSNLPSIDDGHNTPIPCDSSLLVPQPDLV
In words: affinity purification with mass spectrometry; IP of exogenous CEP97 from neurula stage Xenopus embryos, bound proteins eluted with 4% SDS, trypsin digest, LC/MS-MS; two independent experiments.

As to “Dyrk1a, endogenous in Xenopus embryos (from UniProt Q2TAE3 1-750) (enzyme)”, the binding result is reported as “binds”.

Turning to “Plk1, endogenous in Xenopus embryos (from UniProt P70032 1-598) (enzyme)”, the binding result was “binds”.
